Consider one molecule from PMC9226498, “Structural basis for interaction between CLAMP and MSL2 proteins involved in the specific recruitment of the dosage compensation complex in Drosophila” (Nucleic Acids Research, 2022).

Protein sequences, listed by entry. Tags and fused reporters are not part of them. Lines headed by an entry give the natural chain unless they say otherwise; changes in a name come on top.
UniProt P50534: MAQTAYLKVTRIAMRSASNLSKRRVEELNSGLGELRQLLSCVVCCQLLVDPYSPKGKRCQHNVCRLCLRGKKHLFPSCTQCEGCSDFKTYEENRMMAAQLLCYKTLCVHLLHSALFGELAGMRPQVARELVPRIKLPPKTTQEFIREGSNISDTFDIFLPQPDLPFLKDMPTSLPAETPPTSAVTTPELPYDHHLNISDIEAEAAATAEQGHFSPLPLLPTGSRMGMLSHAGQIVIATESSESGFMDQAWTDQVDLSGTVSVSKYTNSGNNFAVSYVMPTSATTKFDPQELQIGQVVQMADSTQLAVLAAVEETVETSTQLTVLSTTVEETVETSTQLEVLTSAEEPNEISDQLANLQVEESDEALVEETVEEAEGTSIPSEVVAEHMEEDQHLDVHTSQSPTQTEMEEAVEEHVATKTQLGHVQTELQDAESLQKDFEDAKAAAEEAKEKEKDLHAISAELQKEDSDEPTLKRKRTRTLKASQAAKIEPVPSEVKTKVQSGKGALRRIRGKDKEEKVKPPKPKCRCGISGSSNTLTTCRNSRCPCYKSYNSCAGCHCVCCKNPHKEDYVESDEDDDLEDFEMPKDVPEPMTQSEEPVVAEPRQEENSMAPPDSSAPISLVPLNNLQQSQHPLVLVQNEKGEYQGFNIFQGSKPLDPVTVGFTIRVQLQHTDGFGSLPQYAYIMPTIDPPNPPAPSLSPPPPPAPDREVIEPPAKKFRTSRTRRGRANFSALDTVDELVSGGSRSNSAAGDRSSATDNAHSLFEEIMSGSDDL

These are yes or no findings as the source states them, for the method shown. In cells and extracts the contact can be indirect. Binding calls can cover weak binding; strength is not graded here. Where a sequence is shown, tags or fusion partners need not be part of it.

For experiment [1], the target named is GST-tagged MSL2^618–655 V634A (Drosophila melanogaster) (UniProt P50534). The experiment is described as follows: pull-down; GST-pulldown: GST-tagged MSL2 618–655 and 6xHis-thioredoxin-tagged CLAMP 1–153; performed as described in ref. 12.
The target of experiment [2] is GST-tagged MSL2^618–655 L633A (Drosophila melanogaster) (UniProt P50534). The description is as above.

B1: 6xHis-thioredoxin-tagged CLAMP^1–153 (domain or fragment, UniProt Q9V9N4 1-153)
chain: MEDLTKNIIFTNAINGQPATIQYQTADGTILKQPKIEGQKTEQQPTFYYTTNGNGGTVNLAQLATTDDNKTCYIAQPVGGYNYALVNGMPLNQGAALGIATVDAQGRIQIVNQNKPIAANTISNISFKCDVCSDMFPHLALLNAHKRMHTDGE
As to B1, the binding result in experiment [1] and in experiment [2] was “binds” in each case.
